Values from PubChem BioAssay AID1224830 (NIAID, 2016).
The deposit covers about 18,000 reagents; this is an unselected part. About 2,900 of them (16%) count as active. 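Calls are made per well; low scores hint the gene aids the LPS response, high scores that it dampens it.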 Repeated entries: four replicate wells of each siRNA pool.

Assay: 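Regulators of TLR4 signalling towards TNF-alpha in macrophage-like cells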 (primary screen)
Cells: human THP-1 monocytic leukaemia cells, TNF dual-luciferase reporter clone, PMA-differentiated to macrophage-like cells
Knock-down reagent: siRNA pool against human genes, 50 nM
Duration: LPS for 4 h, given about 3 days after siRNA transfection
Treatment: bacterial LPS (TLR4 ligand), 10 ng/ml
Read-out: 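Ratio of firefly to renilla light, scaled to the plate median and expressed as a robust z-score per replicate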
Reading the numbers: TNF reporter robust z-score: higher = stronger TNF reporter response to LPS
Rule for the call: 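Each well counts as active if its z-score is over 2.8 or under -1.5; controls are left without a call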

no.	gene	TNF reporter robust z-score	Outcome
1	PRAMEF10	0.29	inactive
2	PRAMEF10	-0.64	inactive
3	PRAMEF10	0.47	inactive
4	PRAMEF10	0.82	inactive
5	SPRED1	0.05	inactive
6	SPRED1	1.49	inactive
7	SPRED1	-0.37	inactive
8	SPRED1	-0.09	inactive
9	KANK1	-0.35	inactive
10	KANK1	0.51	inactive
11	KANK1	0.4	inactive
12	KANK1	0.29	inactive
13	RPGRIP1L	-1.42	inactive
14	RPGRIP1L	-0.77	inactive
15	RPGRIP1L	-1.12	inactive
16	RPGRIP1L	-1.48	inactive
17	CCDC86	-0.61	inactive
18	CCDC86	-0.5	inactive
19	CCDC86	-0.7	inactive
20	CCDC86	-0.54	inactive
21	RCVRN	0	inactive
22	RCVRN	-0.52	inactive
23	RCVRN	-0.64	inactive
24	RCVRN	-0.01	inactive
25	GPR26	0.55	inactive
26	GPR26	0.29	inactive
27	GPR26	1.61	inactive
28	GPR26	0.66	inactive
29	CYP51A1	-0.06	inactive
30	CYP51A1	0.17	inactive
31	CYP51A1	0.15	inactive
32	CYP51A1	0.27	inactive
33	MBIP	-0.98	inactive
34	MBIP	-0.2	inactive
35	MBIP	-0.67	inactive
36	MBIP	-0.28	inactive
37	MCF2L2	-0.03	inactive
38	MCF2L2	0.16	inactive
39	MCF2L2	-0.27	inactive
40	MCF2L2	0.37	inactive
41	FCRL4	-0.11	inactive
42	FCRL4	-0.46	inactive
43	FCRL4	-0.93	inactive
44	FCRL4	-0.61	inactive
45	OR2Y1	-1.01	inactive
46	OR2Y1	-0.41	inactive
47	OR2Y1	-0.67	inactive
48	OR2Y1	-1.08	inactive
49	NARS1	1.19	inactive
50	NARS1	-0.08	inactive
51	NARS1	-0.23	inactive
52	NARS1	-0.2	inactive
53	FNDC3A	-0.21	inactive
54	FNDC3A	-1.16	inactive
55	FNDC3A	-1.21	inactive
56	FNDC3A	-1.22	inactive
57	FNDC3A	0.5	inactive
58	FNDC3A	1.55	inactive
59	FNDC3A	1.41	inactive
60	FNDC3A	0.92	inactive
61	SLC16A13	0.46	inactive
62	SLC16A13	0.25	inactive
63	SLC16A13	0.06	inactive
64	SLC16A13	-0.81	inactive
65	BBC3	2	inactive
66	BBC3	3.05	active
67	BBC3	1.69	inactive
68	BBC3	0.91	inactive
69	FOXJ3	-0.58	inactive
70	FOXJ3	-1.48	inactive
71	FOXJ3	-0.21	inactive
72	FOXJ3	0.5	inactive
73	COX8A	0.02	inactive
74	COX8A	1.59	inactive
75	COX8A	0.12	inactive
76	COX8A	0.18	inactive
77	KIF25	-0.95	inactive
78	KIF25	-0.72	inactive
79	KIF25	-0.49	inactive
80	KIF25	-0.2	inactive
81	RPL14	-0.32	inactive
82	RPL14	-0.62	inactive
83	RPL14	-1.13	inactive
84	RPL14	-0.55	inactive
85	NMRK1	-1.18	inactive
86	NMRK1	-0.89	inactive
87	NMRK1	-0.38	inactive
88	NMRK1	1.44	inactive
89	GATC	-1.17	inactive
90	GATC	-0.55	inactive
91	GATC	-1.36	inactive
92	GATC	-0.67	inactive
93	ERC2	-0.37	inactive
94	ERC2	-0.87	inactive
95	ERC2	-0.69	inactive
96	ERC2	0.33	inactive
97	TMEM160	0.14	inactive
98	TMEM160	2.2	inactive
99	TMEM160	-0.1	inactive
100	TMEM160	0.43	inactive
101	SPECC1L	3.28	active
102	SPECC1L	3.69	active
103	SPECC1L	0.48	inactive
104	SPECC1L	2.95	active
105	CPLANE1	0.84	inactive
106	CPLANE1	0.71	inactive
107	CPLANE1	-0.71	inactive
108	CPLANE1	0.03	inactive
109	PMVK	-1.08	inactive
110	PMVK	0.05	inactive
111	PMVK	-0.4	inactive
112	PMVK	0.79	inactive
113	GLT6D1	0.67	inactive
114	GLT6D1	0.76	inactive
115	GLT6D1	-0.38	inactive
116	GLT6D1	0.93	inactive
117	OR4C45	2.02	inactive
118	OR4C45	3.57	active
119	OR4C45	0.12	inactive
120	OR4C45	-0.1	inactive
121	ASB7	-0.08	inactive
122	ASB7	0.25	inactive
123	ASB7	0.59	inactive
124	ASB7	-2.26	active
125	OR2U1P	-0.35	inactive
126	OR2U1P	-0.12	inactive
127	OR2U1P	-0.13	inactive
128	OR2U1P	-0.34	inactive
129	EPB41L1	1.15	inactive
130	EPB41L1	-0.03	inactive
131	EPB41L1	0.24	inactive
132	EPB41L1	0.36	inactive
133	CCDC125	2.4	inactive
134	CCDC125	2.99	active
135	CCDC125	2.91	active
136	CCDC125	3.11	active
137	NIPA2	-0.98	inactive
138	NIPA2	-0.42	inactive
139	NIPA2	-1.16	inactive
140	NIPA2	-1.73	active

Called active, among the entries above:
gene	TNF reporter robust z-score	Outcome
BBC3	3.05	active
SPECC1L	3.28	active
SPECC1L	3.69	active
SPECC1L	2.95	active
OR4C45	3.57	active
ASB7	-2.26	active
CCDC125	2.99	active
CCDC125	2.91	active
CCDC125	3.11	active
NIPA2	-1.73	active
